Assays:
[1] = in vitro; settings: human, Caco-2
[2] = Bidirectional transport across the Caco-2 cell monolayer (LC/MS/MS); settings: human, Caco-2
[3] = tested on: Caco-2 cell monolayer; assay: as above; settings: marker compound, AP to BL (Table S5)

CC(C)NCC(O)COc1ccc(CC(N)=O)cc1 (centres unmarked) [atenolol, reference compound]
Papp A→B at 90 min [1]: 0.796 ± 0.104 ×10⁻⁶ cm/s | Papp A→B at 30 min [2]: 0.71 ± 0.14 ×10⁻⁶ cm/s | Papp A→B at 60 min [2]: 0.736 ± 0.152 ×10⁻⁶ cm/s | Papp A→B at 120 min [2]: 0.776 ± 0.465 ×10⁻⁶ cm/s | PAB value of marker compound [3]: 7.76 ± 4.65 × 10^−7 cm/s
